Some of the results follow. These are further read-outs of the screen, such as a control signal, another cell line or another target. No call is given for them. The list favours compounds with an active or inconclusive main result. The note in brackets gives the kind of curve behind each potency; many fits are weak.

This test can be described thus: qHTS Assay for Lipid Storage Modulators in Drosophila S3 Cells.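 On cell number change: cells counted by Cell Tracker Red CMTPX staining in the red channel.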 The note with it: BODIPY lipid droplet fluorescence, 18-24 h; for cell number change: measured here: cell count max response, cells fed with added oleic acid. In short, it runs like this:
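Drosophila S3 cells loaded with oleic acid (400 uM, as added) and compounds at several concentrations; lipid droplets imaged by 488-nm laser-scanning cytometry, 500–530 nm intensity and object ratio to cell channel. Percent activity normalized to 20 uM Triacsin C.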
(qHTS replaces the single test concentration by a dilution series.)

Setting [1] is: measured here: cell number channel AC50, cells fed with added oleic acid.
[2] abbreviates: measured here: lipid fluorescence (Fed channel) AC50, cells fed with added oleic acid.

In the case of `COc1ccccc1N(CC(=O)NC1CCCCC1)C(=O)Cn1nnc(-c2ccc(C)o2)n1`, the cell number change is 21.4%. With `CCn1cc([N+](=O)[O-])c(C(=O)N2N=C(c3ccc4ccccc4c3)CC2c2cc(Br)ccc2O)n1` (configuration not stated), the cell number change is -51.2%. Further, the AC50 under setting [1] was 20.6 µM [falling, single point]. Under setting [2], the AC50 was 20.6 µM [falling, single point]. For the molecule `CN(C)c1nc(Cl)cc(N2CCOCC2)n1`, the AC50 under setting [2] is 1.3 µM [falling, partial curve, poor fit]. On to `CCOCCCNC(=O)c1cc2c(=O)[nH]c3ccccc3c2s1`, for which the cell number change amounted to 8.5%. Take `CSc1ccc(/C=N/N(C)S(=O)(=O)c2ccc(C)cc2)cc1`: the cell number change is -15.7%. Besides, the AC50 under setting [2] was 29.1 µM [falling, single point].

On to `O=C(c1ccccc1)N1N=C(c2ccccc2)CC1(O)C(F)(F)F` (configuration not stated), for which the cell number change is -32.5%. Besides, the AC50 under setting [1] was 32.6 µM [falling, single point]. For the molecule `Cc1cc2n(n1)C(c1ccsc1)Nc1ccccc1-2` (configuration not stated), the cell number change came to 20.9%. Further, the AC50 under setting [2] is 13 µM [rising, partial curve]. Regarding `COc1ccc(OC)c(S(=O)(=O)ON2C(=O)c3ccccc3C2=O)c1`, the cell number change is 5.26%. Moreover, under setting [2], the AC50 was 0.0517 µM [falling, full curve, poor fit]. As to `CC1CC(C)(C)NC(=S)N1CCC(=O)Nc1ccc2c(c1)OCCO2` (configuration not stated), the AC50 under setting [2] was 7.31 µM [falling, single point].

Take `O=C(c1ccccc1)N1N=C(c2ccccc2)CC1c1cccs1` (configuration not stated): the AC50 under setting [1] was 0.00461 µM [rising, full curve, poor fit]. As for `O=C(OCc1ccccc1F)c1cnc(Cl)c(Cl)c1`, the cell number change was 20.9%. With `Cc1ccc2nc(-c3ccncc3)cc(C(=O)N3CCOCC3)c2c1`, the cell number change was -8.09%. Moreover, under setting [2], the AC50 is 0.164 µM [falling, full curve, poor fit].

Consider `CC(C)(C)c1ccc(-n2ncc3c2CCCC3NC(=O)CN2CCCCC2=O)cc1` (configuration not stated), for which the cell number change was -19.1%. The AC50 under setting [2] is 29.1 µM [falling, single point].

In the case of `C/C(CC(=O)NC12CC3CC(CC(C3)C1)C2)=N\NC(=O)c1ccc(C)cc1`, the cell number change was 5.25%. For the same molecule, the AC50 under setting [2] was 0.092 µM [rising, full curve, poor fit]. As to `CCC(C)NCCOc1cc(C)cc(C)c1C` (configuration not stated), the AC50 under setting [2] was 0.00461 µM [falling, full curve, poor fit]. With `CCCCN(C1CCS(=O)(=O)C1)S(=O)(=O)c1ccc(OC)c(OC)c1` (configuration not stated), the cell number change was -33.3%. The AC50 under setting [1] is 20.6 µM [falling, single point]. Moreover, under setting [2], the AC50 is 20.6 µM [falling, single point]. For `Cc1ccc(Cn2cccc(NS(C)(=O)=O)c2=O)cc1`, the cell number change stood at 14.4%. As for `Cc1ccc(NC(=O)Nc2ccc3oc(C)nc3c2)cc1`, the AC50 under setting [1] is 0.731 µM [rising, partial curve, poor fit]. As to `O=C(COC(=O)c1ccccn1)NCCCc1ccccc1`, the cell number change was -18.2%. In addition, the AC50 under setting [2] is 3.26 µM [falling, partial curve, poor fit]. Consider `COCCCNc1nc2c(-c3ccc(Cl)cc3)nnn2c2ccccc12`, for which the cell number change worked out at 14.8%. Further, the AC50 under setting [2] was 0.58 µM [rising, full curve]. Take `CCOC(=O)c1ccc(-c2c(-c3ccc4c(c3)OCO4)noc2-c2ccsc2)cc1F`: the cell number change was -5.39%. Take `COc1ccc(-c2nnn(Cc3ccccc3)n2)cc1OC`: the cell number change came to 3.28%. As for `CNC(=O)c1ccc(-c2ccc(OC)cc2)s1`, the cell number change is -10.1%. `O=C(/C=C/c1ccc(Cl)c([N+](=O)[O-])c1)Nc1ccc(NC(=O)c2ccco2)cc1`: the cell number change is -15.3%. Regarding `CN(C)/C=N/C(=S)Nc1ccc(Cl)cc1`, the cell number change is -29.2%. Besides, the AC50 under setting [2] was 29.1 µM [falling, single point]. For the molecule `CN(Cc1ccccc1F)C(=O)CNC(=O)Cc1cccc2ccccc12`, the cell number change was 14.1%. Also, the AC50 under setting [2] was 6.51 µM [rising, partial curve, poor fit].

Turning to `CCCCOc1nc2ccccc2nc1NS(=O)(=O)c1ccc(F)cc1`, the cell number change is 2.13%. For `Cc1ccc(NC(=O)COC(=O)COc2ccc3ccc(=O)oc3c2)cc1[N+](=O)[O-]`, the cell number change is -3.58%. Also, the AC50 under setting [2] was 16.4 µM [rising, single point].

For the molecule `COc1ccc(NC(C)C(=O)N/N=C/c2ccc([N+](=O)[O-])s2)cc1` (configuration not stated), the cell number change was -11.1%.

For the molecule `CC(=O)Nc1ccc(S(=O)(=O)Nc2cccc(N(C)S(C)(=O)=O)c2)cc1`, the cell number change was -31.2%. For the same molecule, under setting [1], the AC50 was 7.31 µM [falling, partial curve]. For the same molecule, the AC50 under setting [2] is 11.6 µM [falling, partial curve]. With `COc1ccc(OCC(=O)NCCS(=O)(=O)N2CCN(c3ccc(F)cc3)CC2)cc1`, the cell number change is 24.5%. Further, the AC50 under setting [1] was 0.651 µM [rising, full curve, poor fit]. Also, under setting [2], the AC50 was 29.1 µM [rising, single point]. On to `O=C(COc1ccc(F)c(Cl)c1)c1ccc[nH]1`, for which the cell number change was -29.3%. Besides, the AC50 under setting [2] was 20.6 µM [rising, partial curve]. Consider `CCCn1nc(NC(=O)COC)c2cc3cc(C)ccc3nc21`, for which the AC50 under setting [2] is 6.51 µM [rising, single point]. Regarding `COc1ccc(S(=O)(=O)N2CCCC(C(=O)NCCC(C)C)C2)cc1` (configuration not stated), the AC50 under setting [2] was 0.651 µM [rising, single point]. On to `Cn1cc(C(=O)N2CCN(c3cccc(Cl)c3)CC2)c(=O)c2cc(S(=O)(=O)N3CCOCC3)ccc21`, for which the cell number change is -17.4%. Besides, under setting [2], the AC50 was 3.26 µM [falling, single point]. Take `Cc1cc(C)c(C#N)c(SCC(=O)N(C)C2CCCCC2)n1`: the cell number change stood at 9.55%. Besides, the AC50 under setting [1] is 5.8 µM [rising, partial curve, poor fit]. Take `O=C(O)c1ccccc1NC(=O)C(Cc1ccccc1)N1C(=O)c2ccccc2C1=O` (configuration not stated): the cell number change was -6.31%. On to `c1ccc(C2Nc3ccccc3C3OCCCC23)cc1` (configuration not stated), for which the cell number change is 15.3%. In addition, under setting [2], the AC50 was 29.1 µM [rising, single point]. Take `Cn1c2ccccc2c2cc(C(=O)O)ccc21`: the cell number change is 2.05%. In addition, the AC50 under setting [2] was 29.1 µM [rising, single point]. Regarding `CCOC(=O)c1c(C)oc2c1c(C(c1ccccc1)N1CCOCC1)c(O)c1ccccc12` (configuration not stated), the cell number change came to 54.3%. Also, the AC50 under setting [1] is 3.66 µM [rising, partial curve]. On to `CCCCn1c(N)c(N(CCC(C)C)C(=O)c2cccc(S(=O)(=O)N3CCN(C)CC3)c2)c(=O)[nH]c1=O`, for which the cell number change was -35.6%. For the same molecule, the AC50 under setting [1] was 2.91 µM [falling, full curve]. The AC50 under setting [2] is 3.66 µM [falling, full curve].

On to `COc1ccc(S(=O)(=O)N2CCC(C(=O)NCc3ccncc3)CC2)cc1C`, for which the cell number change is -7.89%. Consider `Cc1cccc(-c2nnc(SCC#N)n2Cc2ccccc2)c1`, for which, under setting [2], the AC50 is 6.51 µM [rising, single point]. Regarding `O=C(Cc1ccccc1)N1CCC(c2ccccc2)C1` (configuration not stated), the cell number change is -34.1%. In addition, the AC50 under setting [1] is 0.13 µM [falling, full curve]. The AC50 under setting [2] was 0.146 µM [falling, full curve]. As for `Cn1ccnc1SCC(=O)Nc1ccc(Oc2ccccc2)cc1`, the cell number change was -19.1%.

Turning to `Nc1ncnc2c1ncn2[C@@H]1O[C@H](COS(=O)(=O)O)[C@@H](O)[C@H]1O`, the cell number change is -3.25%. Also, the AC50 under setting [2] is 20.6 µM [rising, single point]. Consider `COc1ccc2c(=O)c(C(=O)NCc3ccccc3)c[nH]c2c1`, for which the cell number change is -21.3%. Further, the AC50 under setting [2] was 25.9 µM [falling, single point].

As to `Cc1ccc(OCC(=O)NNC(=O)c2ccccc2OCc2c(C)noc2C)cc1`, the AC50 under setting [2] is 2.31 µM [rising, partial curve]. In the case of `N#CCCN(C(=O)COC(=O)CNS(=O)(=O)c1ccc2ccccc2c1)c1ccccc1`, the cell number change was -7.76%. Under setting [2], the AC50 is 0.00731 µM [rising, full curve, poor fit]. For the molecule `CC1CCC(N2CCN(C(=O)c3ccccc3F)CC2)CC1` (configuration not stated), the cell number change is -1.01%. The AC50 under setting [2] was 4.61 µM [rising, full curve, poor fit]. For `CCOC(=O)c1c(-c2ccccc2)oc2ccc(OCC(=O)NNC(=O)CCCC(=O)O)cc12`, the cell number change is 8.52%. Besides, the AC50 under setting [2] is 0.00517 µM [rising, full curve, poor fit]. On to `Cc1nc2ccc([N+](=O)[O-])cc2c(=O)n1Cc1cccc(F)c1`, for which the cell number change is -10.8%. As to `CC(CCc1ccccc1)NC(=O)C(Cc1ccccc1)NC(N)=O` (configuration not stated), the cell number change came out at 4.76%. The AC50 under setting [2] is 6.51 µM [rising, single point]. In the case of `COc1ccc(CCNC(=O)CCc2nc3ccccc3[nH]2)cc1OC`, the cell number change stood at 37.2%. The AC50 under setting [1] is 8.2 µM [rising, partial curve, poor fit]. Turning to `O=C(NC1CCCC1)C(c1ccc(Cl)cc1)N1CCOCC1` (configuration not stated), the cell number change turned out to be 18.5%.

With `CC(OC(=O)CCCN=C1NS(=O)(=O)c2ccccc21)C(=O)NC1CCCCC1C` (configuration not stated), the cell number change was determined as 9.37%. Further, the AC50 under setting [2] is 29.1 µM [falling, single point]. Turning to `CCCCN(CC)CCCNC(=O)C1c2ccccc2C(=O)N(C)C1c1cn(C)c2ccccc12` (configuration not stated), the cell number change is -124%. The AC50 under setting [1] was 25.9 µM [falling, partial curve]. Also, the AC50 under setting [2] was 29.1 µM [falling, partial curve].

Turning to `C[C@@]12CCC[C@@](C)(C(=O)O)C1CC[C@@]13C[C@@H](NCc4ccccc4)[C@@](C)(CCC12)C3` (some centres not stated), the cell number change is 18.8%. In addition, under setting [2], the AC50 is 16.4 µM [falling, single point].

Take `CCOC(=O)C1(CCCc2ccccc2)CCN(C(=O)CSC)CC1`: the cell number change was -30.1%. Besides, the AC50 under setting [1] is 16.4 µM [falling, partial curve, poor fit]. For the same molecule, the AC50 under setting [2] was 4.61 µM [falling, single point]. For `O=C1C2C3C=CC(C3)C2C(=O)N1c1ccc2ccccc2c1` (configuration not stated), the cell number change was -4.39%. Further, the AC50 under setting [2] is 1.84 µM [falling, partial curve].

In the case of `O=C(COC(=O)c1ccc2c(c1)OCCO2)NC1CCCCC1`, the cell number change is -17.4%. Same read-out and setting: the value for `CCCCc1nc2cc(C(=O)N3CCCC(OCCC)C3)ccc2o1` (configuration not stated) was -10.5%. For `Nn1c(=O)c2ccccc2n2c(SCc3ccc(C(F)(F)F)cc3)nnc12`, the cell number change was 11.6%. For the same molecule, under setting [2], the AC50 is 29.1 µM [rising, single point]. As for `Cc1ccc(C(=O)N(c2ccccc2)C2CC(C)N(C(=O)c3ccco3)c3ccccc32)cc1` (configuration not stated), the cell number change is 59.1%. Further, the half-maximal activity concentration (AC50) under setting [1] was 14.6 µM [rising, partial curve]. For the molecule `CC(C)(C)C(=O)N1CCC[C@@]1(CO)C(=O)O`, the cell number change amounted to 0.431%. For the same molecule, the half-maximal activity concentration (AC50) under setting [1] is 3.26 µM [falling, single point].

As a reminder, the AC50 is the concentration at which the activity in the assay is half-maximal. A low value points to activity at low concentration.

For the origin of these results see PubChem BioAssay AID2685 (National Center for Advancing Translational Sciences (NCATS), 2010).
